Nucleus area z-score data for 34 compounds are collected here from the supplement of paper PMC11348887.

Where a name gives a salt, the structure may show the parent alone. Some of the results follow. Small differences around the control level are noise.

The assay concerns hPSC-derived cortical neurons (WA09). Nature of the assay: nucleus area z-score vs screen plate; higher = larger nuclei (more mature). The settings on record: 5 µM; treatment: days 7-14 after plating, readout day 21.
For the compound `CC(C(=O)O)c1ccc(-c2ccccc2)c(F)c1` (centres undefined) [Flurbiprofen], the nucleus area z-score is -0.155.

`CCCc1cc2c(N3CCN(C4=NCC(C)(C)S4)CC3)ncnc2s1` [MI-2 (Menin-MLL Inhibitor)] showed a nucleus area z-score of -4.08.

Turning to `Cc1ccc(NC(=O)c2ccc(CN3CCN(C)CC3)cc2)cc1Nc1nc(-c2cccnc2)cs1` [Masitinib (AB1010)], the nucleus area z-score is 0.221.

For the compound `O=C(/C=C\n1cnc(-c2cc(C(F)(F)F)cc(C(F)(F)F)c2)n1)N1CC(F)(F)C1`, the nucleus area z-score is -5.52.

Turning to `O=C1c2c(O)ccc(O)c2C(=O)c2c(NCCNCCO)ccc(NCCNCCO)c21` [Mitoxantrone HCl], the nucleus area z-score was -5.46.

For the compound `C#C[C@]1(O)CC[C@H]2[C@@H]3CCC4=CC(=O)CC[C@@H]4[C@H]3CC[C@@]21CC` [Levonorgestrel], the nucleus area z-score is 0.586.

`CN1[C@@H]2CC[C@H]1C[C@@H](OC(c1ccccc1)c1ccccc1)C2` [Benztropine mesylate] displayed a nucleus area z-score of 1.28.

Consider `CCCc1nc(C(C)(C)O)c(C(=O)OCc2oc(=O)oc2C)n1Cc1ccc(-c2ccccc2-c2nnn[nH]2)cc1` [Olmesartan Medoxomil], for which the nucleus area z-score was -0.0115.

In turn, `O=C(NCCCNc1nc(Nc2cccc(NC(=O)N3CCCC3)c2)ncc1I)c1cccs1` had a nucleus area z-score of 0.693.

As to `CCCN[C@H]1CCc2nc(N)sc2C1` [Pramipexole], the nucleus area z-score was found to be 1.09.

Regarding `NC[C@H]1O[C@H](O[C@H]2[C@H](O[C@@H]3O[C@H](CO)[C@@H](O)[C@H]3O)[C@@H](O)[C@H](N)C[C@@H]2N)[C@H](N)[C@@H](O)[C@@H]1O` [Ribostamycin Sulfate], the nucleus area z-score was 0.139.

Consider `N[C@@H](CC(=O)N1CCn2c(nnc2C(F)(F)F)C1)Cc1cc(F)c(F)cc1F` [Sitagliptin phosphate monohydrate], for which the nucleus area z-score is -0.836.

In turn, `CCOc1nc2cccc(C(=O)O)c2n1Cc1ccc(-c2ccccc2-c2nnn[nH]2)cc1` [Candesartan] registered a nucleus area z-score of 0.222.

Regarding `C=C[C@@]1(C)CC(=O)[C@]2(O)[C@@]3(C)[C@@H](O)CCC(C)(C)[C@@H]3[C@H](O)[C@H](OC(C)=O)[C@@]2(C)O1` [Forskolin], the nucleus area z-score came to 0.443.

As to `Cc1cc(Cn2cnc3c2CC(C(=O)O)N(C(=O)C(c2ccccc2)c2ccccc2)C3)ccc1N(C)C` (centres undefined), the nucleus area z-score was determined as 4.43.

For the compound `NC12CC3CC(CC(C3)C1)C2` [Amantadine HCl], the nucleus area z-score stood at 0.729.

The compound `C[C@H]1COc2c(N3CCN(C)CC3)c(F)cc3c(=O)c(C(=O)O)cn1c23` [Levofloxacin hydrate] registered a nucleus area z-score of 0.102.

As to `Oc1ccc([C@H]2COc3cc(O)ccc3C2)cc1` [Equol], the nucleus area z-score came to 1.08.

In the case of `O=C(O)C1=CO[C@@H](O[C@@H]2O[C@H](CO)[C@@H](O)[C@H](O)[C@H]2O)[C@@H]2C(CO)=CC[C@H]12` [Geniposidic acid], the nucleus area z-score came out at 0.105.

`CCOC(=O)[N-]c1c[n+](N2CCOCC2)no1` [Molsidomine] had a nucleus area z-score of -1.32.

Compound `Cc1ccc(C)c(OCCCC(C)(C)C(=O)O)c1` [Gemfibrozil] returned a nucleus area z-score of 1.15.

Turning to `Cc1ccc(S(=O)(=O)n2c(N)nc3ccccc32)cc1` [ML130 (Nodinitib-1)], the nucleus area z-score is -0.288.

Regarding `CC1(C)CC[C@]2(C(=O)O)CC[C@]3(C)C(=CC[C@@H]4[C@@]5(C)CC[C@H](O)C(C)(C)[C@@H]5CC[C@]43C)[C@@H]2C1` [Oleanolic Acid], the nucleus area z-score amounted to 0.204.

As for `CCCC(C(=O)OCCN(CC)CC)(c1ccccc1)c1ccccc1` [Proadifen HCl], the nucleus area z-score was -1.29.

Regarding `O=C(N/N=C/c1ccc(O)c(O)c1)c1cc2ccccc2cc1O` [Dynasore], the nucleus area z-score was -0.382.

`CC(C)NCC(O)COc1ccc(CCOCC2CC2)cc1` (centres undefined) [Betaxolol]: the nucleus area z-score was determined as 0.731.

For `C=CC(=O)Nc1cccc(Nc2nc(Nc3ccc(Oc4ccnc(C(=O)NC)c4)cc3)ncc2F)c1`, the nucleus area z-score was 0.217.

`CCN1/C(=C/C(C)=O)Sc2ccc(OC)cc21` had a nucleus area z-score of -0.195.

For the compound `COCCOC(=O)C1=C(C)NC(C)=C(C(=O)OC/C=C/c2ccccc2)C1c1cccc([N+](=O)[O-])c1` (centres undefined) [Cilnidipine], the nucleus area z-score was -0.973.

The compound `Oc1ccc(/C=C/c2cc(O)cc(O)c2)cc1` [Resveratrol] displayed a nucleus area z-score of 0.435.

In turn, `CC(C(=O)O)c1cccc(C(=O)c2ccccc2)c1` (centres undefined) [Ketoprofen] yielded a nucleus area z-score of -0.405.

The compound `O=C1[C@H](CC[C@H](O)c2ccc(F)cc2)[C@@H](c2ccc(O)cc2)N1c1ccc(F)cc1` [Ezetimibe] showed a nucleus area z-score of -0.0199.

The compound `O=c1[nH]nc(Sc2ncc([N+](=O)[O-])s2)n1-c1ccc2c(c1)OCCO2` returned a nucleus area z-score of -19.

For `NCC(=O)Nc1ccc(-n2nc(C(F)(F)F)cc2-c2ccc3c(ccc4ccccc43)c2)cc1`, the nucleus area z-score is -1.54.
